According to paper PMC7998036:
No constants are given. Whether binding was seen depends on the method and setting. Binding seen in cells or lysates may run through a third protein. Binding calls can cover weak binding; strength is not graded here. Where a sequence is shown, tags or fusion partners need not be part of it.

Biological target: T1, N-Myc-Rab13 (UniProt P51153)
T1 sequence: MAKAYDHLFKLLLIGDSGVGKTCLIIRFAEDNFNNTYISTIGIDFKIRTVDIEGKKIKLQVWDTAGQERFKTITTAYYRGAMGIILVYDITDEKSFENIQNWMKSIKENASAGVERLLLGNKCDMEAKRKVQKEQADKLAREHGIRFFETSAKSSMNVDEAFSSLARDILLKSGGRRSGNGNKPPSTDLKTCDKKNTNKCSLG
Test: co-IP; HEK293T co-transfected for 48 h with tagged constructs; 200 μL lysate with 30 μL beads (Myc-Tag, α-HA, IgG: 10 min at room temperature; FLAG: overnight at 4 °C); washed three times with TBST or TBS; immunoblot with α-HA or α-FLAG

**Q.** With “N-3xHA-RabGAP1L WT (Rab GTPase-activating Protein 1-like) (human)” as the substance, how does the binding read?
**A.** binds
